This is an account of results in the supplement of paper PMC12819154, “High-throughput peptide-centric local stability assay extends protein–ligand identification to membrane proteins, tissues and bacteria” (Nature Structural & Molecular Biology, 2025).

Protein sequences, listed by entry. Tags and fused reporters are not part of them. Lines headed by an entry give the natural chain unless they say otherwise; changes in a name come on top.
UniProt Q16891: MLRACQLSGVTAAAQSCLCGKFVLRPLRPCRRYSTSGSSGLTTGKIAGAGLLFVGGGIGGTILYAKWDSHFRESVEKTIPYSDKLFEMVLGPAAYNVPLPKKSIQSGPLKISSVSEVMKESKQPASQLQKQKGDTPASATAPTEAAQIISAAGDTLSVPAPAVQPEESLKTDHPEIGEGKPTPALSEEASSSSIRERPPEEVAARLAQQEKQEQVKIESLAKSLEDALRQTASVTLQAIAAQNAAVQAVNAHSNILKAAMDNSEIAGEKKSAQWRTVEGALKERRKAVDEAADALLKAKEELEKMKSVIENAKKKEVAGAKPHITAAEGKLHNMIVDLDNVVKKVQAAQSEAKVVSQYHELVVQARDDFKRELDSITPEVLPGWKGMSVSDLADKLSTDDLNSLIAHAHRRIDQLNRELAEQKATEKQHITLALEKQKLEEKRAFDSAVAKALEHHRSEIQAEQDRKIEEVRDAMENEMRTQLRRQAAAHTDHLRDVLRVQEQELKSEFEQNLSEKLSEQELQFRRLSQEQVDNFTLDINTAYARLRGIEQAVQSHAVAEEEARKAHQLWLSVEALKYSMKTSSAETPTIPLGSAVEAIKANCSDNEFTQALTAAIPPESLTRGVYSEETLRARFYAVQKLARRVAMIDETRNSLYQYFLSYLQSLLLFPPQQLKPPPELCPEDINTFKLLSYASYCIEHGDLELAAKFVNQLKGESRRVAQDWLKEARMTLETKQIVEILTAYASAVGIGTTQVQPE
UniProt Q15327: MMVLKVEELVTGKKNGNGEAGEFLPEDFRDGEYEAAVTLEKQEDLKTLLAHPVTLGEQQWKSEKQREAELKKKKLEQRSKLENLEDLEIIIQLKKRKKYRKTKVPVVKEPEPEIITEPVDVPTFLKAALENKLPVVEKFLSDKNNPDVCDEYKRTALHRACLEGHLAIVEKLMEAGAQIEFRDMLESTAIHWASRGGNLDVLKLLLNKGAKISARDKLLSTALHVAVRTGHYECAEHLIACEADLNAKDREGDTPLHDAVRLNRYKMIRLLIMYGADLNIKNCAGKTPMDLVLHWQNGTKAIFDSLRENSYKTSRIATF
UniProt Q15819: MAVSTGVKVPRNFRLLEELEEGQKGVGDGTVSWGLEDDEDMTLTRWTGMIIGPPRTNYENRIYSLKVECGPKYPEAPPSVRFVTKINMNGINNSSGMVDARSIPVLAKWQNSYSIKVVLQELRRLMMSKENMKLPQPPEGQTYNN
UniProt Q15170: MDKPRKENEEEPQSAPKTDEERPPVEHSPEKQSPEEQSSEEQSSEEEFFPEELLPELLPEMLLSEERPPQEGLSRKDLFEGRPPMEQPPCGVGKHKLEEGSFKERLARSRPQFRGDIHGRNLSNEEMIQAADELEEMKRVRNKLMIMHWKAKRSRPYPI
UniProt Q32P28: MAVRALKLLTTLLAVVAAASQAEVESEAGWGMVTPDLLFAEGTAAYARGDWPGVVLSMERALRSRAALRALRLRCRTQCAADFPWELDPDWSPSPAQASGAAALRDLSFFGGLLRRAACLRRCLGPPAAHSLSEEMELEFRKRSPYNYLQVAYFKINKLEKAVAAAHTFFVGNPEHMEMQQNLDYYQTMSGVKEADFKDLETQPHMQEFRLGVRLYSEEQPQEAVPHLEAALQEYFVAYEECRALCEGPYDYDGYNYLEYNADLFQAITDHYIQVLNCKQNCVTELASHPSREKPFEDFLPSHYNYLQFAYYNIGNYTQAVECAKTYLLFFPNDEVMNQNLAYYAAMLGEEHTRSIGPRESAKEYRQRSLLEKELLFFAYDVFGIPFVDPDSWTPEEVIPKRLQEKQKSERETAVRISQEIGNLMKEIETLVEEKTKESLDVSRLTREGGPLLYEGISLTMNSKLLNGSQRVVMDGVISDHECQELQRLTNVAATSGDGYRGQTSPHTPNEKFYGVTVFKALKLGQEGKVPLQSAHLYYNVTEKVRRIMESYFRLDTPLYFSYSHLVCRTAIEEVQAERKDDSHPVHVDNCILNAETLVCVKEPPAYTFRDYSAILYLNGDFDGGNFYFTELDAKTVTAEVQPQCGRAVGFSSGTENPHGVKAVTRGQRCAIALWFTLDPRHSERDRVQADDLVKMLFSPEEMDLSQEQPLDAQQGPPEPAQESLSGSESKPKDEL
UniProt Q16740, whole entry: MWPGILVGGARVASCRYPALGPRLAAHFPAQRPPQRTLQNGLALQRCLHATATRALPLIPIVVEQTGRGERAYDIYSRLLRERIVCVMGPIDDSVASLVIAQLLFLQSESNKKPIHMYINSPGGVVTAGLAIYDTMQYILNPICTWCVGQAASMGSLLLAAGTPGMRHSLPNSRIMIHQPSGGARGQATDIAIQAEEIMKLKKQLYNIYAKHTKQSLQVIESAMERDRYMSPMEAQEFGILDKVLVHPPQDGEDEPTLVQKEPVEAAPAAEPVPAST
UniProt Q15651: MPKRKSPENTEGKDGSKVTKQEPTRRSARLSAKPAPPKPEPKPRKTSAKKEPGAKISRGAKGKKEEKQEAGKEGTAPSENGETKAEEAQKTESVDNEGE
UniProt Q15797: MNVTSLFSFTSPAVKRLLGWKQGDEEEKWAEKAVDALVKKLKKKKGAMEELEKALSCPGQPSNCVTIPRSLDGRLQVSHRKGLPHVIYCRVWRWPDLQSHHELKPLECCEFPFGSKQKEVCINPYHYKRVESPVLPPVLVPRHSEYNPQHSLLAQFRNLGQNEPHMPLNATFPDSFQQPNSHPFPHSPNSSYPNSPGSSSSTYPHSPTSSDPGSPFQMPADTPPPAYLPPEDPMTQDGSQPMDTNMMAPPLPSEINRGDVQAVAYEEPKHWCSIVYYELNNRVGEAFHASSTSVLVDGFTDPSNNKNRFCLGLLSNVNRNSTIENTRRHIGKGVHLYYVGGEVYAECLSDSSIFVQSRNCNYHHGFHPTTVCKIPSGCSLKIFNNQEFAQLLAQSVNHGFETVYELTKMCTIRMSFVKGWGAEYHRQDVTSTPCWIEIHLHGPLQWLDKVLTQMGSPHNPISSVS
UniProt Q15788: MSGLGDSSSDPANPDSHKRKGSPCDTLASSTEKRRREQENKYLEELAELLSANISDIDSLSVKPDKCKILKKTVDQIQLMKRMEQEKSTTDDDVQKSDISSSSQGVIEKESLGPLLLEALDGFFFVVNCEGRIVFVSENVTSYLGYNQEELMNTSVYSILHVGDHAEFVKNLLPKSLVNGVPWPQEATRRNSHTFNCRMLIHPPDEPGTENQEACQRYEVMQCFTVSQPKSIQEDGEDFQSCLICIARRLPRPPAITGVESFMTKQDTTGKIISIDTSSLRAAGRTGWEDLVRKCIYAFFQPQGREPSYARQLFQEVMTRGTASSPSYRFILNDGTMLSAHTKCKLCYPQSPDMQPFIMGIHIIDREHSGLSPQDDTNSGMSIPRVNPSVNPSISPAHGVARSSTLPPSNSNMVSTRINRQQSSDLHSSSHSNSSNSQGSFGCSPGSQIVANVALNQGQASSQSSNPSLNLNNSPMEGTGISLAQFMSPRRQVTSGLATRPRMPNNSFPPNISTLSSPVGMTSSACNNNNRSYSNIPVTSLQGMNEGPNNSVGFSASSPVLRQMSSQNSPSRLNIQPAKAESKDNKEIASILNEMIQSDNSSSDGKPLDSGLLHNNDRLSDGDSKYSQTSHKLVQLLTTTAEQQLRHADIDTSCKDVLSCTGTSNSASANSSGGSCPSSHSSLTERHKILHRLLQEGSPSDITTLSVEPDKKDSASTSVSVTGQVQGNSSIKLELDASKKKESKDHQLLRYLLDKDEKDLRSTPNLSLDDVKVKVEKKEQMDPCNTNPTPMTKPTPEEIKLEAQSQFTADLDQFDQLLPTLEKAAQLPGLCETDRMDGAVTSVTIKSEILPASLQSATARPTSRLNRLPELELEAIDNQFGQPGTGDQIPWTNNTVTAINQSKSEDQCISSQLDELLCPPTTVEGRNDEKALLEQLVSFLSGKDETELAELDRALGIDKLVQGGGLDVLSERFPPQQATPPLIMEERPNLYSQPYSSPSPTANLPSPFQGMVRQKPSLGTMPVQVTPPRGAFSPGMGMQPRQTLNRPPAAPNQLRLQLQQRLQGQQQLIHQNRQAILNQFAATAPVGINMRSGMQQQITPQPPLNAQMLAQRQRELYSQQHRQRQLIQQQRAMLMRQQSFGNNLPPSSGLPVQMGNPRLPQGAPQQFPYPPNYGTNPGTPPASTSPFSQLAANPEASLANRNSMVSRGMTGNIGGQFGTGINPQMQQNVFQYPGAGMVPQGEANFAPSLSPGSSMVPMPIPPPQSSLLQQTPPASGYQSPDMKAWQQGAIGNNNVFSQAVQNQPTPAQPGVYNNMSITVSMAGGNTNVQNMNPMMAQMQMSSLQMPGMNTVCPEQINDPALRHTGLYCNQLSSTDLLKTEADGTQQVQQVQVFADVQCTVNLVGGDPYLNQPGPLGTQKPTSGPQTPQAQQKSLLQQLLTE
UniProt Q16560: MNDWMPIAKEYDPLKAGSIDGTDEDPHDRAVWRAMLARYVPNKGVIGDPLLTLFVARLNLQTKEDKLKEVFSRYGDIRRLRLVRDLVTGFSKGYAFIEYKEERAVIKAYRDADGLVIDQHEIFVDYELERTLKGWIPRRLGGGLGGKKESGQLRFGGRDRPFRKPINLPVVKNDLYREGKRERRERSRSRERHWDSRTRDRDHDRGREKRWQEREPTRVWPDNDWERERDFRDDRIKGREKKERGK
UniProt Q15111: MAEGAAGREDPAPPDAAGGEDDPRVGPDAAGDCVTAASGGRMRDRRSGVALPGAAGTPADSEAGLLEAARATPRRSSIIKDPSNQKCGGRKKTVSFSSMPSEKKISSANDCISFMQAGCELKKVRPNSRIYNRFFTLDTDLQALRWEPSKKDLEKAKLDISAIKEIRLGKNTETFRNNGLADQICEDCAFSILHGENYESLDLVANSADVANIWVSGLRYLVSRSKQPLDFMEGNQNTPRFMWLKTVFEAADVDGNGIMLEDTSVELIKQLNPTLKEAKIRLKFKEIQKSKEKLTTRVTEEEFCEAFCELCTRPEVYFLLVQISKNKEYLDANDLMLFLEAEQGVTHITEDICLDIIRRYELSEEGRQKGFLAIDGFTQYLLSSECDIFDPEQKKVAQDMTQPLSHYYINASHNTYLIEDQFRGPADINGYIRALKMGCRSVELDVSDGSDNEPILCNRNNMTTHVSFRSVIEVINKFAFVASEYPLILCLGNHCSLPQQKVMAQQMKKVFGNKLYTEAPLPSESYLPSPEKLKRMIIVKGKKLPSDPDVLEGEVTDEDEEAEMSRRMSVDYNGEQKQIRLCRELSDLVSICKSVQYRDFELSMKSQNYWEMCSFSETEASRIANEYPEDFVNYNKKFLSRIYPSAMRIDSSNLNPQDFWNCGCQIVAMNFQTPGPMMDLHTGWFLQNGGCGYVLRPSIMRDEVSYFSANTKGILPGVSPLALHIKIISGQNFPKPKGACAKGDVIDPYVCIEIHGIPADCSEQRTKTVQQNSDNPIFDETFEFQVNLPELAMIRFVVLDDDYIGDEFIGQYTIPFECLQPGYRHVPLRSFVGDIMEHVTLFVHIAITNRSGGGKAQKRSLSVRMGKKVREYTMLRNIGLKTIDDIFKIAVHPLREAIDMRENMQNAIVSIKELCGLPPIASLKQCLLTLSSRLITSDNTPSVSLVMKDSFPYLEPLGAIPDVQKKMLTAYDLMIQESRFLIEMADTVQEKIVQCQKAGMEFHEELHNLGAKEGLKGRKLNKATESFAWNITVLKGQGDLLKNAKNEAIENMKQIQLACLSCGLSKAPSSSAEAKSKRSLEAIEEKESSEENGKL
UniProt Q2QGD7: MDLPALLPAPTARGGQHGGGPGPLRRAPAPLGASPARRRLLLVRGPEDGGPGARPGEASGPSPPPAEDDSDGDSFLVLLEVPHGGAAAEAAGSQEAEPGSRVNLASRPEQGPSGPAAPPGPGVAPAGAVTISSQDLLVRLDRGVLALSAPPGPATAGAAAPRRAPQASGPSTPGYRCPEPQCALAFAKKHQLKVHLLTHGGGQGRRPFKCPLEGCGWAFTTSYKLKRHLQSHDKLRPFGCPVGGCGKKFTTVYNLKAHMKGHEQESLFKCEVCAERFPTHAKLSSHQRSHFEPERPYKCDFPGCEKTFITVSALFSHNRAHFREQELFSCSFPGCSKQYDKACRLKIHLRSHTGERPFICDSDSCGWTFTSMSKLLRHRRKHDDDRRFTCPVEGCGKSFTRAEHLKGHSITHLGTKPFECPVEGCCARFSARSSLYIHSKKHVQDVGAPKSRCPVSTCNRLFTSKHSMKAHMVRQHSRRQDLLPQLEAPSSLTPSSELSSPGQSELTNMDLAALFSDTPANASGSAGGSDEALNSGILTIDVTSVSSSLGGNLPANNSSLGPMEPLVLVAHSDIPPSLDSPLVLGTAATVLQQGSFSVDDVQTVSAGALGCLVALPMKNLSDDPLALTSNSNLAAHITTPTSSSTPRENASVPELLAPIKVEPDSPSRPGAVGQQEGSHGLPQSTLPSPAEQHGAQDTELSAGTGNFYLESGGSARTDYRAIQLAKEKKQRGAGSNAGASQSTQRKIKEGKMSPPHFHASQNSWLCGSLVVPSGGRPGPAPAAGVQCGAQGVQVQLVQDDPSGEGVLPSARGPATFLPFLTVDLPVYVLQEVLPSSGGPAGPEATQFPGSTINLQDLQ

This is one part of the list. Most entries show no effect beyond the scatter of the controls.

Compound in this assay: CN[C@@H]1C[C@H]2O[C@@](C)([C@@H]1OC)n1c3ccccc3c3c4c(c5c6ccccc6n2c5c31)C(=O)NC4 [staurosporine]
Kind of assay: log2 fold change of tryptic peptide abundance, ligand vs vehicle (limited proteolysis) (log2 ratio); higher = more trypsin-susceptible (destabilized). Particulars: ligand concentration: 20 uM; sample: K562 cleared lysate; digestion: 4 min, 22 C (HT-PELSA RT4min, Orbitrap Astral).
For the target “ATP2B3 (peptide sequence: KPYGRDK, peptide start residue: 912) (UniProt Q16720)”, the log2 fold change worked out at 0.15.
The value for “TRIP10 (peptide sequence: LKLEVQKYEAWLAEAESR, peptide start residue: 457) (UniProt Q15642)” was 0.257; that for “UniProt Q15697 (peptide sequence: EIVTLVEDFHR, peptide start residue: 116)” was -0.103; that for “IMMT (peptide sequence: VVSQYHELVVQAR, peptide start residue: 354) (UniProt Q16891)” was 0.361.
Next, “LONRF2 (peptide sequence: LEEGDEAFR, peptide start residue: 27) (UniProt Q1L5Z9)”: -0.158; “UniProt Q1ED39 (peptide sequence: QVFGHLEFLSGEKK, peptide start residue: 102)”: 0.481; “RABEP1 (peptide sequence: INAEFLR, peptide start residue: 24) (UniProt Q15276)”: -0.292.
As for “ADRM1 (peptide sequence: DKKDEEEDMSLD, peptide start residue: 396) (UniProt Q16186)”, the log2 fold change was -0.193.
For “UniProt Q15327 (peptide sequence: QREAELK, peptide start residue: 65)”, the log2 fold change was found to be 0.021.
Turning to “UBE2V2 (peptide sequence: YPEAPPSVR, peptide start residue: 73) (UniProt Q15819)”, the log2 fold change worked out at 0.187.
“TCEAL1 (peptide sequence: KENEEEPQSAPK, peptide start residue: 6) (UniProt Q15170)”: the log2 fold change is -0.493.
The value for “QRICH1 (peptide sequence: EQMGQMLTR, peptide start residue: 748) (UniProt Q2TAL8)” was 0.154; that for “STXBP2 (peptide sequence: HMHIADVSKK, peptide start residue: 293) (UniProt Q15833)” was 0.87.
With “UniProt Q32P28 (peptide sequence: DLETQPHMQEFR, peptide start residue: 199)”, the log2 fold change came out at 0.302.
Consider “CLPP (peptide sequence: ALPLIPIVVEQTGR, peptide start residue: 55) (UniProt Q16740)”, for which the log2 fold change is -1.32.
Take “GON4L (peptide sequence: WTVVKTEEGR, peptide start residue: 1290) (UniProt Q3T8J9)”: the log2 fold change is -1.15.
The value for “UniProt Q15651 (peptide sequence: EGTAPSENGETK, peptide start residue: 73)” was -0.272; that for “NSDHL (peptide sequence: THLTEDTPKVNADIEK, peptide start residue: 16) (UniProt Q15738)” was 0.24; that for “SMAD1 (peptide sequence: EVCINPYHYK, peptide start residue: 120) (UniProt Q15797)” was 0.166.
With “NCOA1 (peptide sequence: NSHTFNCR, peptide start residue: 191) (UniProt Q15788)”, the log2 fold change turned out to be 0.702.
The value for “KIF14 (peptide sequence: FNHPVEVQK, peptide start residue: 898) (UniProt Q15058)” was 0.633; that for “WDR43 (peptide sequence: MPLHTIIPLLQELTKR, peptide start residue: 497) (UniProt Q15061)” was 0.462.
Regarding “MTHFSD (peptide sequence: ITPPPGATK, peptide start residue: 99) (UniProt Q2M296)”, the log2 fold change was -0.469.
Next, “UniProt Q15149 (peptide sequence: AEEAEAQKR, peptide start residue: 1619)”: -0.968.
As for “SNRNP35 (peptide sequence: VWPDNDWER, peptide start residue: 219) (UniProt Q16560)”, the log2 fold change is -0.24.
In the case of “SEC23A (peptide sequence: FGEYHKDDPSSFR, peptide start residue: 557) (UniProt Q15436)”, the log2 fold change came to 0.257.
Next, “TRIP6 (peptide sequence: VAQPVRGCGPPR, peptide start residue: 174) (UniProt Q15654)”: -0.157.
The value for “TAF9 (peptide sequence: ATVDADDVR, peptide start residue: 64) (UniProt Q16594)” was 0.282; that for “QSER1 (peptide sequence: SVSTPLTTLDATSDKKK, peptide start residue: 1245) (UniProt Q2KHR3)” was -0.598; that for “UniProt Q3C1V9 (peptide sequence: TLNQVHR, peptide start residue: 246)” was -0.263.
The value for “PLCL1 (peptide sequence: KMLTAYDLMIQESR, peptide start residue: 966) (UniProt Q15111)” was 0.802.
For the target “ZSWIM7 (peptide sequence: TCQQLSVSDK, peptide start residue: 117) (UniProt Q19AV6)”, the log2 fold change is -0.805.
Next, “MRPL23 (peptide sequence: NVVYPLYR, peptide start residue: 4) (UniProt Q16540)”: 0.171.
“ITSN1 (peptide sequence: SGPGSQLNTK, peptide start residue: 188) (UniProt Q15811)”: the log2 fold change is -0.264.
For the target “CWF19L2 (peptide sequence: DRYATTDTAK, peptide start residue: 316) (UniProt Q2TBE0)”, the log2 fold change is -0.609.
The value for “UniProt Q2QGD7 (peptide sequence: CPVSTCNR, peptide start residue: 453)” was -0.349.
